In patent US20050239140A1 (Janssen / Centocor, published 2005):
Results are given in words; binding and its absence hold for the method and conditions named. Some entries that bind do so weakly or less than the wild type.

T1: soluble murine Tissue Factor (extracellular domain) (murine) (UniProt P20352)
T1 sequence (looked up): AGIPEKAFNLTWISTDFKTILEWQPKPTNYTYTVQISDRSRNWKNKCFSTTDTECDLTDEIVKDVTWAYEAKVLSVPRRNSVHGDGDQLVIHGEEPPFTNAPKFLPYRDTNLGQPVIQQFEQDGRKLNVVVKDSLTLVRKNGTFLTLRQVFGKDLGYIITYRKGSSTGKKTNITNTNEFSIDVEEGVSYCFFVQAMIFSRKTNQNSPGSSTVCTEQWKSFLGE


Columns and labels:
[1] = biological target: T1, soluble murine Tissue Factor (extracellular domain) (murine); assay: screening of Fab clones from the competition panning
[2] = biological target: T1, soluble murine Tissue Factor (extracellular domain) (murine); assay: ELISA, purified Fab

binding [1]	binding [2]	Binder
binds	binds	PHD103 Fab (Fab, V domains shown) VH: QVQLVQSGAEVKKPGESLKISCKGSGYSFSNSWIAWVRQMPGKGLEWMGGIIGPGHSYTKYSPSFQGQVTISADKSISTAYLQWSSLKASDTAMYYCARINMGYFDYWGQGTLVTVSS VL: DIELTQPPSVSVAPGQTARISCSGDSLGLKKFVSWYQQKPGQAPVLVIYDDSNRPSGIPERFSGSNSGNTATLTISGTQAEDEADYYCGTYDQTIGHDVVFGGGTKLTVLG
binds	binds	PHD127 Fab (Fab, V domains shown, HuCAL Fab; The assignment of 8 (VH) and 9 (VL) to PHD127 follows the order of listing) VH: QVQLVQSGAEVKKPGESLKISCKGSYSFTNSWISWVRQMPGKGLEWMGIIDPDDSYTSYSPSFQGQVTISADKSISTAYLQWSSLKASDTAMYYCARGAGYGRMFGDVWGQGTLVTVSS VL: DIELTQPPSVSVAPGQTARISCSGDNLGSYYASWYQQKPGQAPVLVIYQDDNRPSGIPERFSGSNSGNTATLTISGTQAEDEADYYCGAYTYSTSWVFGGGTKLTVLG
